This note sets out measurements from PubChem BioAssay AID1347423 (Functional Genomics Laboratory (NCATS/FGL), 2020).

Out of some 52,000 sequences screened, about 210 (0.4%) were called active.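 The calls were made as follows: active = gene whose silencing raises cell survival under the drug, median off-target-corrected z-score across its silencing RNAs 2 or more; inactive = the rest.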 The list shows a part of the results.

A short description of the assay: Resistance to Poly (ADP-Ribose) Polymerase inhibitor: Gene Identification via Genome-wide siRNA Screen. The following applies: mouse BRCA2 R2336H ES cells, olaparib, CellTiter-Glo viability; hits give high values. In short, it runs like this:
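Mouse BRCA2 R2336H ES cells were reverse-transfected with siRNA (20 nM final), treated at 48 h with 500 nM olaparib, and read by CellTiter-Glo after 72 h. Scores: MAD-based z per siRNA, median per gene, seed off-target correction.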
In general terms: Cellular ATP, detected with luciferase, serves as a proxy for viable cell number.
Take GGGCCAUUUCAGCUUUUCUTT against Mei1: the z-score was inactive: -0.0174. With GGUAGGGUGGACACAACUCTT against Gpsm3, the z-score is inactive: 1.08. Then CCCGGAGAGUCAUUUGUGUTT against Cpsf4, with inactive: -1.05; and “GGUAGUGGAAUGUGGGAGUTT against 2610044O15Rik”, with inactive: -1.55; and GGACGUGCUCAAGUUCAUCTT against Ift172, with inactive: -1.45.

For “CCUUAGCAGAAUUGAGUCGTT against 1110001A12Rik”, the z-score was inactive: -0.00428. In the case of “CCCAAUAGGCAACUCCGAATT against 1700025K23Rik”, the z-score was inactive: 0.384. Turning to GGCAAAACAAAGAAUGAAATT against Tesp2, the z-score was inactive: -0.345. The same measure for GGUCAGAACUUGAUGCUGCTT against Fgr: inactive: 1.27. Then CCCAAAACUUCGUUUGUGUTT against Vezf1, with inactive: 0.53. Consider GCCAUUCUCCAACAAUCGATT against Evc, for which the z-score was inactive: 0.905. Then GGAAGUUCAGAUUUGCUACTT against Hes6, with inactive: 1.77. The same measure for GCAGGCUAGGAACAGUUAATT against Gpr61: inactive: -0.489.

Consider GGUGUGUUUGGAUAUAGUUTT against Prkdc, for which the z-score is inactive: 1.01. With GCAUGCGUCAAUUUCUAAATT against Cdon, the z-score was inactive: 0.362.

With GGAAGAUGACAGUGCUGUATT against AA408296, the z-score was inactive: -0.0381. For the sequence GGUCUGCACUGAGAAGAUUTT against Hmg20b, the z-score is inactive: 0.21. With CGGAGACAUUUUCCCUAGCTT against Ccng1, the z-score was inactive: -0.884.

In the case of GGUGGUUACUAGGAACAAGTT against MGC59240, the z-score is inactive: -1.28. Consider GGUGAGUCAACUGUAUUUCTT against Wdr51a, for which the z-score was inactive: -0.637.

As for GGCUUUGGAGAUAAAUUUATT against Nup153, the z-score is inactive: -2.27. The same measure for CCAGUUCUAAGCAAAUUGATT against Cyp4v3: inactive: 0.209. Then GGGACUGGAUCCUUGAUAUTT against Ebi3, with inactive: -1.49; and GGAACUGGGAGACCUAUAATT against Angptl2, with inactive: -2.79; and GCUUCUAUACUGAUUAUGATT against Aldh6a1, with inactive: 0.694.

Consider GGGAACAGGCUUGUUGUCUTT against Treml1, for which the z-score is inactive: -0.934. On to GCAAUCAACUGUCUGUUUUTT against Cyp2b9, for which the z-score is inactive: 0.401. Then CCUACGGCAAACAGAGACUTT against Prss18, with inactive: 2.06. The same measure for GGUUCAUUUAUACUUAACCTT against Tgifx1: inactive: 2.29. Then GCAAGCAGAGCUGAUUCUUTT against Slc25a24, with inactive: -0.794. For the sequence GGACUGCUUCUACAAGGUUTT against Uck1, the z-score was inactive: 1.06.

On to GGUAAAGCAAGAGAGUAUUTT against Hccs, for which the z-score is inactive: 1.46.

As to “GGUGCCAUGGCUAUCUGUGTT against 2810439M11Rik”, the z-score is inactive: -2.09. Then GGAGAUCUCACCGACAUUGTT against Cpt1c, with inactive: -1.12; and CCUCAAACUAACCACUCACTT against Olfr1045, with inactive: -0.866; and GGAUGCCGUCAACAUUGUATT against Psmd4, with inactive: -3.43. As to GGUCUCUUCGAUGUCCUCATT against Htr6, the z-score was inactive: -0.158. As to “GCUGGACUCACAUUUCAGUTT against 4930417G10Rik”, the z-score was inactive: -2.24. Then GGCUCUUCUCUCGUCCUUGTT against Nif3l1, with inactive: 0.693. With “GGAAGGAAAUGUGUGAAAUTT against 4930555G01Rik”, the z-score was inactive: -1.25.

On to GGGCCUCAAAAACCUCAUGTT against Prelp, for which the z-score was inactive: -0.251. Then GCUGCUUUACUUAAGAGUUTT against Srf, with inactive: -0.654; and CCUCUCAGAUGGUAUAUAATT against Olfr520, with inactive: 1.57; and GGAAUCGGCAGUCUCAUUCTT against AA408868, with inactive: -1.28. The same measure for GGAGAAAAAGUCCAAGUCGTT against AJ430384: inactive: 1.82; for CGCCAGCUCUGAAUCCUUUTT against Olfr693: inactive: 1.91. Then GCAGAUCGAUUUUACCUCGTT against Bbp, with inactive: -0.645. With GGUGAAUCAGCGUAAUGUATT against Nrbp, the z-score is inactive: -1.97.

As to GGGUUUUGGAUGGCGAAUATT against Lgals7, the z-score was inactive: -1.19. Regarding GGUACCGGCUGGAAAAUGATT against Inpp5b, the z-score is inactive: -0.0994.

In the case of “GGAUAGUCCAAAGUUUUGUTT against 1110034O07Rik”, the z-score was inactive: 0.918.

In the case of CGUGCUAGUCAACACCUCCTT against Cnnm4, the z-score is inactive: 0.164. Then GGAAACAUCCAAGAAAAAUTT against Ap1s2, with inactive: -0.0628. The same measure for GUCCUACGUGCUUAGCUACTT against Endog: inactive: 0.985. The same measure for “GGGCUAGGAGAAACUCCUCTT against 0610010K14Rik”: inactive: 0.994; for GGAGGUUGAGGCAUUUAAATT against Ogfr: inactive: 0.318; for GGUGGAAACAGUUGUUAUGTT against Jag2: inactive: 0.324. For the sequence “GAAGGAAGAAUAUUGGCCCTT against 2810004A10Rik”, the z-score is inactive: -0.221.

For the sequence GGGCUUCACAAUCCCAUGUTT against Olfr539, the z-score was inactive: -1.27. Turning to GCAUUUCCUAUAAUCGUUGTT against Olfr360, the z-score was inactive: 0.859. Then GGAGCUAGAGGUAGACCGUTT against D11Wsu47e, with inactive: 0.791. For the sequence GGCUGAAUCGGCAUUUCCATT against Klhdc3, the z-score is inactive: -0.807. Take GGCUUAUUCUCUGGUAUUUTT against Mpv17l: the z-score was inactive: 0.0481. Then GGCUAGUUGCCAUGAUGCATT against Spink3, with inactive: -0.773; and GCCACCUCAAAACAUAUCATT against Il12rb2, with inactive: -0.147.

As for GGCAAAAUUGGAAAGAGAATT against Gopc, the z-score was inactive: 0.542. As for GGAGCAAGACAUAUAGAAATT against Grcc9, the z-score was inactive: 0.182. In the case of GGCAUUGGAAGAUGCACAGTT against Scp2, the z-score was inactive: -0.42.

As for “GGGAGAUUUUAGGUUUGGATT against A830053O21Rik”, the z-score was inactive: -1.86. The same measure for GGAGGCAGUCCUGUGUACATT against Paqr4: inactive: -1.2; for GGAAAGCCUUGGCUACAUGTT against Olfr97: inactive: -1.89.

With GUCACUUGGCUUCCAUUGATT against Olfr510, the z-score was active: 1.19. Then GGACAGAAAUGGUAAAGAATT against D3Jfr1, with inactive: 0.298; and GCUUUAUAAGGCUAUUGGATT against Rcl1, with inactive: -0.954; and GCGCAACCUGUGCUUUUCUTT against Hoxd10, with inactive: -1.6. Then GGACAAGUUCUGUUGGUAUTT against Zfp275, with inactive: -1.18; and GCUGCUGGAGUGCAACUAATT against Tradd, with inactive: -0.136; and GGACAAAGAUUGAAGAAUGTT against Mib1, with inactive: -0.878. For the sequence GCUUCAGCUCUGAUUAACGTT against Alox15b, the z-score is inactive: 0.872. The same measure for GUCAUCUUCCUCCAGCACCTT against Olig2: inactive: 0.115; for GGGCUCAAGAAAUAAAUCATT against Aspa: inactive: 0.961.

As for “CGAGCAUGCUAAAUAUAUUTT against C330029B10Rik”, the z-score is inactive: -0.0722.

As to CCAGCCGUAUUACAACUACTT against Bpnt1, the z-score was inactive: -0.777. Then CCAACUAAGUGAAAUUCCATT against Aspn, with inactive: 0.333; and “GGAGUAUAAUGCCUUGGUUTT against 1810020D17Rik”, with inactive: -0.799; and “GCGGUUUUGUGUCAGGGACTT against 4833408A19Rik”, with inactive: 0.828. As for GGUCAAAGGUGAAGAGAAATT against Chgb, the z-score is inactive: -1.58. Consider GGCCAGUGCCUUUGUGAUGTT against Mtnr1b, for which the z-score is inactive: -0.281. The same measure for “GGCAGAAGUUAGCAUAAAUTT against 8030499H02Rik”: inactive: -0.124. The same measure for CGCAGAGUUAAUUUCUUGUTT against Rchy1: inactive: -1.03; for GGGAUUAUAGGAAAAUUCUTT against Nhlh1: inactive: 0.679. Take GCGCUCCUUCUGUGAUUCATT against Olfm4: the z-score was inactive: 0.887.

Regarding GUAAUUUAUCCUUUGCUGATT against Olfr378, the z-score is inactive: -0.145. Consider GCCAUUUACAUUCCCAGGGTT against Gm741, for which the z-score is inactive: 0.238. The same measure for CCUUAGAACUGAGAUAAGUTT against BC030500: inactive: 1.36; for UUUGUUGAUCUGUUCACCATT against Mbtps2: inactive: 0.0472. Consider GGAAAUAGAGGAAAGAGAATT against Rbm17, for which the z-score was inactive: 0.542.

On to “GGUUCAUGUAGCAGUGGAUTT against 0610042E07Rik”, for which the z-score was inactive: -1.2.

Take GGAAAUACUGGAUCAUCAATT against Cts3: the z-score is inactive: -0.186.

Consider CCUUUAAGCUAAAUGAAGGTT against Scube2, for which the z-score is inactive: 0.684. In the case of GCCCAGAUUGUGCUAACAUTT against Prkacb, the z-score was inactive: -3.18. Then GCUGGCCUAAGAGUCCCUUTT against Klra8, with inactive: -0.274; and GCAAAGCUUGAUAACAAUATT against Idh1, with inactive: 0.456.

As to “CCACCAAUUUGUAAGUAUATT against D930038D03Rik”, the z-score is inactive: 0.697.

Turning to GGAUCACUACCAUGAAAACTT against Bace1, the z-score was inactive: -0.551.
